In patent publication US20240182585A1:
These are yes or no findings as the source states them, for the method shown. Some results given as binding are weak or reduced against the parent protein; the word gives no strength.

Target: T1, human GFRAL (form used in the screening of Examples 7 and 8 not stated) (human) (UniProt Q6UXV0)
T1 sequence: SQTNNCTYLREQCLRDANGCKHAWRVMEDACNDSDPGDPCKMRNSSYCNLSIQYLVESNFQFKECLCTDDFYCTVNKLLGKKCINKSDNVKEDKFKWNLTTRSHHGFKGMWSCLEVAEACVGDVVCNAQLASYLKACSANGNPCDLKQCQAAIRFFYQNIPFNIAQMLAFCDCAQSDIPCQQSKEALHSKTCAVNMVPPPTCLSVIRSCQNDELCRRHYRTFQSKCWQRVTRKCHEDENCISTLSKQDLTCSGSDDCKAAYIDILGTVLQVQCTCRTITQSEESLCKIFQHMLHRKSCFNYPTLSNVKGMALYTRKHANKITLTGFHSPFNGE
Assay: assay not described

B1: QUEL-0102 (antibody, V domains shown)
VH: QVQLVESGGGVVQPGRSLRLSCAASGFTLKNYGMHWVRQGPGKGLEWVAIISYDGTFKYSVDSVKGRFTISRDNSKNTLYLQMNSLRTEDTALYYCAKEAGDFYGSGSYGYHKYGLDVWGQGTTVTVSS
VL: DVQMTQSPSSLSASVGDRVTITCRASQDISNYLAWYQQQPGKVPKLLIYAASTLQSGVPSRFSGSGSGTDFTLTISSLQPEDVASYYCQKYNSAPLTFGGGTEVEIK
  binding: binds

B2: QUEL-0103 (antibody, V domains shown)
VH: QVQLVESGGGVVQPGRSLRLSCAASGFTFNNYGMHWVRQGPGKGLEWVAIISYDGTTKYSVDSVKGRFTISRDNSKNTLYLQMNSLRTEDTALYFCAKEAGDFYGSGNYGYHKYGLDVWGQGTTVTVSS
VL: DIQMTQSPSSLSASVGDRVTITCRASQDISNYLAWYQQKPGKVPKLLIYAASTLQSGVPSRFSGSGSGTDFTLTISSLQPEDVASYYCQKYNSAPLTFGGGTEVEIK
  binding: binds

B3: QUEL-0104 (antibody, V domains shown)
VH: QVQLVESGGGVVQPGRSLRLSCAASGFTFNNYGMHWVRQGPGKGLEWVAIISYDGTTKYSVDSVKGRFTISRDNSKNTLYMQMDSLRTEDTALYYCAKEAGDFYGSGNYGYLYYGLDVWGQGTTVTVSS
VL: DIQMTQSPSSLSASVGDRVTITCRASQDISNYLAWYQQKPGKVPNLLIFAASTLQSGVPSRFSGSGSGTDFTLTISSLQPEDVATYYCQKYNSAPLTFGGGTKVEIN
  binding: binds

B4: QUEL-0105 (antibody, V domains shown)
VH: QVQLVESGGDVVQPGRSLRLSCAASGFTFKNYGMHWVRQGLGKGLEWVAIISYDGTTKYSVDSVKGRFTISRDNSKNTLYLQMNSLRTEDTALYYCAKEAGDFYGSGNYGYYYYGLDVWGQGTTVTVSS
VL: DIQMTQSPSSLSASVGDRVTITCRANQDISNYLAWYQQKPGKFPKLLIYAASTLQSGVPSRFSGSGSGTDFTLTISSLQPEDVATYYCQKYNSAPLTFGGGTKVEIK
  binding: binds
